{"source": "patent US20230398106A1", "about": "“COMBINATION THERAPY OF DONEPEZIL AND SILDENAFIL FOR THE TREATMENT OF ALZHEIMER'S DISEASE OR COGNITIVE IMPAIRMENT” (NEURORIVE INC, priority 2020, published 2023)", "test_system": "mouse brain slice treated with 3 μM amyloid beta (Aβ)", "conditions": "Amyloid beta 3 μM; Donepezil 100 nM single treatment", "data": [{"smiles": "COc1cc2c(cc1OC)C(=O)C(CC1CCN(Cc3ccccc3)CC1)C2", "note": "(stereo not shown) [Donepezil, donepezil]", "values": [{"measurement": "Synaptic long-term potentiation (Increase or decrease compared to Amyloid beta group)", "value": 9.18, "unit": "%"}]}]}
